From article doi:10.1101/2024.06.17.598829 (bioRxiv, 2024)
No constants are given. Whether binding was seen depends on the method and setting. In cells and extracts the contact can be indirect. Some results given as binding are weak or reduced against the parent protein; the word gives no strength. For part of these data: Sequences can lack the tags named with a protein.

Legend:
Assay in all cases: co-IP
[1] = target: T1, NPH3ΔC51 (Arabidopsis thaliana) (UniProt Q9FMF5)
T1 sequence: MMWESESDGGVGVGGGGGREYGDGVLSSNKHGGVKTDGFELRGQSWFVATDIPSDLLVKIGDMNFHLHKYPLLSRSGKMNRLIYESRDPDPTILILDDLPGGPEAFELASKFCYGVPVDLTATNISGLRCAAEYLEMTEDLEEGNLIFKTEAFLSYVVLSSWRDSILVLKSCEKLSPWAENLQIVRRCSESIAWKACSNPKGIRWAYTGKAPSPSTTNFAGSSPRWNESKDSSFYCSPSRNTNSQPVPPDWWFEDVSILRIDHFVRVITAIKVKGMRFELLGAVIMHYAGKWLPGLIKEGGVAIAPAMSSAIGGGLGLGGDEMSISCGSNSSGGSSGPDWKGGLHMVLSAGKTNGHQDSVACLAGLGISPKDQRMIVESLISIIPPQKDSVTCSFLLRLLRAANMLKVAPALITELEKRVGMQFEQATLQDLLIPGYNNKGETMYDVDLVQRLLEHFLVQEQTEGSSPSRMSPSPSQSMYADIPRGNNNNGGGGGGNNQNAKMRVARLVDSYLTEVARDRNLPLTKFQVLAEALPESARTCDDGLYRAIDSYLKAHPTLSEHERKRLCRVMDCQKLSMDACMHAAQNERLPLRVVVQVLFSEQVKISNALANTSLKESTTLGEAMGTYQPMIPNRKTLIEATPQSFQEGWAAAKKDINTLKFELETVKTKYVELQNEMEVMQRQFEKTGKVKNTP

[2] = target: T2, NON-PHOTOTROPIC HYPOCOTYL 3 (NPH3), fluorophore-tagged, expressed in N. benthamiana (Arabidopsis thaliana) (UniProt Q9FMF5)
T2 sequence: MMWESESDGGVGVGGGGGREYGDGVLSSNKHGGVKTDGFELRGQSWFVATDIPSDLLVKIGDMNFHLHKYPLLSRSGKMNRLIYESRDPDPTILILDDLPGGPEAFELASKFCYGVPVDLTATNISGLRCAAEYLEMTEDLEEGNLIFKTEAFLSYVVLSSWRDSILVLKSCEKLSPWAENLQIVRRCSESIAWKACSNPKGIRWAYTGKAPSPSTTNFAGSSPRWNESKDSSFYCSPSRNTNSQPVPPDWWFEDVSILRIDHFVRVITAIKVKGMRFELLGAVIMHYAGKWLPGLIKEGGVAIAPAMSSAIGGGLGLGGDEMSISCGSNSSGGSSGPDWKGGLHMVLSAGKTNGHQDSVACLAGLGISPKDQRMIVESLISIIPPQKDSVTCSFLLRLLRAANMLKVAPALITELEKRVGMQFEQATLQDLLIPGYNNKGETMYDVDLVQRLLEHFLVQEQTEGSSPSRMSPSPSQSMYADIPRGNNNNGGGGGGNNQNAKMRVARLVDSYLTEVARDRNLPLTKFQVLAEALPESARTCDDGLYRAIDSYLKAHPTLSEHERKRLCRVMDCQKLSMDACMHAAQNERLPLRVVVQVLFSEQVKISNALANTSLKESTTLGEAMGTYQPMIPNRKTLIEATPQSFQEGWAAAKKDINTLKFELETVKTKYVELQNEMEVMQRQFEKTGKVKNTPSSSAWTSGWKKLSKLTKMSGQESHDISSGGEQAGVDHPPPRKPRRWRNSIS

[3] = target: NPH3ΔC164 (Arabidopsis thaliana) (UniProt Q9FMF5)
[4] = target: T3, NPH3_S744A (Arabidopsis thaliana) (UniProt Q9FMF5)
T3 sequence: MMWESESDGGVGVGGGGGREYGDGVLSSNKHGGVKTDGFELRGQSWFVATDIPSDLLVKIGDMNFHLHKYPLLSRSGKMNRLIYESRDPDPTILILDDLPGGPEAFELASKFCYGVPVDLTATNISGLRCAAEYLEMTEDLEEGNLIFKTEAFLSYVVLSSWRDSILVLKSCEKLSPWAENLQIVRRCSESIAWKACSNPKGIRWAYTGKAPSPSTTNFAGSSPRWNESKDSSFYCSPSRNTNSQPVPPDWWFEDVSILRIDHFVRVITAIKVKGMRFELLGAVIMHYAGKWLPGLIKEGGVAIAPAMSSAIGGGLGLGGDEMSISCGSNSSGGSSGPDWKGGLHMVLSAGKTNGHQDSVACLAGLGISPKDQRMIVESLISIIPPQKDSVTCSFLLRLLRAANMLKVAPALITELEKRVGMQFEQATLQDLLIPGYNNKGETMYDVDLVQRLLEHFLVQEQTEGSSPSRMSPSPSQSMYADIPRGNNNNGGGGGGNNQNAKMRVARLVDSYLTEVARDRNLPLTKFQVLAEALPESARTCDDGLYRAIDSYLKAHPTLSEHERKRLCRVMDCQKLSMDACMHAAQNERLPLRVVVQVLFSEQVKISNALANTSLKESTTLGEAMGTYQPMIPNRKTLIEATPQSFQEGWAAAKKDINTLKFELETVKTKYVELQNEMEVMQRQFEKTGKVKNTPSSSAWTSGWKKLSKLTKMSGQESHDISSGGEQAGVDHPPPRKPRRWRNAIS

[5] = target: T4, ROOT PHOTOTROPISM 2 (RPT2), RFP-tagged (Arabidopsis thaliana) (UniProt Q682S0)
T4 sequence: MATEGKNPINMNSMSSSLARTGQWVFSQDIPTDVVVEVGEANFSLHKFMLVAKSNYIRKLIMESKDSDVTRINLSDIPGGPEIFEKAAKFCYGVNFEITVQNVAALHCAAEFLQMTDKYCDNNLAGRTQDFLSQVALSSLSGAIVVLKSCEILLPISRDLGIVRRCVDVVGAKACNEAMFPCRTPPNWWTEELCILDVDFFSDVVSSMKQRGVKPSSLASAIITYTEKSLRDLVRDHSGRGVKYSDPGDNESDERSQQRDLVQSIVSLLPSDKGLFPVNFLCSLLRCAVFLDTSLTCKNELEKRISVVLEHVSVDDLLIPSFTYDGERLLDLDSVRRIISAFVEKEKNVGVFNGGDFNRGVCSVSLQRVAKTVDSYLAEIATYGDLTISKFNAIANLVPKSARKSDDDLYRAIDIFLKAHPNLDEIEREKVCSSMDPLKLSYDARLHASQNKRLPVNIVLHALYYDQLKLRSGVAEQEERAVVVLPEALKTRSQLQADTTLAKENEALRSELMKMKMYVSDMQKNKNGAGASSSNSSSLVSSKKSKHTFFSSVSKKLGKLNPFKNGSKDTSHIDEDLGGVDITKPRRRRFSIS

Row | Binder | binding [1] | binding [2] | binding [3] | binding [4] | binding [5]
1 | NPH3ΔC164 (domain or fragment, UniProt Q9FMF5 1-582) MMWESESDGGVGVGGGGGREYGDGVLSSNKHGGVKTDGFELRGQSWFVATDIPSDLLVKIGDMNFHLHKYPLLSRSGKMNRLIYESRDPDPTILILDDLPGGPEAFELASKFCYGVPVDLTATNISGLRCAAEYLEMTEDLEEGNLIFKTEAFLSYVVLSSWRDSILVLKSCEKLSPWAENLQIVRRCSESIAWKACSNPKGIRWAYTGKAPSPSTTNFAGSSPRWNESKDSSFYCSPSRNTNSQPVPPDWWFEDVSILRIDHFVRVITAIKVKGMRFELLGAVIMHYAGKWLPGLIKEGGVAIAPAMSSAIGGGLGLGGDEMSISCGSNSSGGSSGPDWKGGLHMVLSAGKTNGHQDSVACLAGLGISPKDQRMIVESLISIIPPQKDSVTCSFLLRLLRAANMLKVAPALITELEKRVGMQFEQATLQDLLIPGYNNKGETMYDVDLVQRLLEHFLVQEQTEGSSPSRMSPSPSQSMYADIPRGNNNNGGGGGGNNQNAKMRVARLVDSYLTEVARDRNLPLTKFQVLAEALPESARTCDDGLYRAIDSYLKAHPTLSEHERKRLCRVMDCQKLSMDACM | binds weakly | binds weakly | binds weakly | – | –
2 | NON-PHOTOTROPIC HYPOCOTYL 3 (NPH3), fluorophore-tagged, expressed in N. benthamiana (protein, UniProt Q9FMF5 1-746) MMWESESDGGVGVGGGGGREYGDGVLSSNKHGGVKTDGFELRGQSWFVATDIPSDLLVKIGDMNFHLHKYPLLSRSGKMNRLIYESRDPDPTILILDDLPGGPEAFELASKFCYGVPVDLTATNISGLRCAAEYLEMTEDLEEGNLIFKTEAFLSYVVLSSWRDSILVLKSCEKLSPWAENLQIVRRCSESIAWKACSNPKGIRWAYTGKAPSPSTTNFAGSSPRWNESKDSSFYCSPSRNTNSQPVPPDWWFEDVSILRIDHFVRVITAIKVKGMRFELLGAVIMHYAGKWLPGLIKEGGVAIAPAMSSAIGGGLGLGGDEMSISCGSNSSGGSSGPDWKGGLHMVLSAGKTNGHQDSVACLAGLGISPKDQRMIVESLISIIPPQKDSVTCSFLLRLLRAANMLKVAPALITELEKRVGMQFEQATLQDLLIPGYNNKGETMYDVDLVQRLLEHFLVQEQTEGSSPSRMSPSPSQSMYADIPRGNNNNGGGGGGNNQNAKMRVARLVDSYLTEVARDRNLPLTKFQVLAEALPESARTCDDGLYRAIDSYLKAHPTLSEHERKRLCRVMDCQKLSMDACMHAAQNERLPLRVVVQVLFSEQVKISNALANTSLKESTTLGEAMGTYQPMIPNRKTLIEATPQSFQEGWAAAKKDINTLKFELETVKTKYVELQNEMEVMQRQFEKTGKVKNTPSSSAWTSGWKKLSKLTKMSGQESHDISSGGEQAGVDHPPPRKPRRWRNSIS | – | binds | – | binds | binds
